Test results as given in paper PMC10139132, “Immobilization of M3 Muscarinic Receptor to Rapidly Analyze Drug—Protein Interactions and Bioactive Components in a Natural Plant” (International Journal of Molecular Sciences, 2023).

Test system: immobilized M3R
Experiment: Specificity of the M3R-immobilized column (retention times of ligands)
Type: binding
Settings: pH 7.4

## CN1[C@@H]2CC(OC(=O)[C@H](CO)c3ccccc3)C[C@H]1[C@@H]1O[C@@H]12.Cl (single isomer, unassigned; (-)) [(−)-Scopolamine hydrochloride]
  retention time on the M3R-immobilized column: 4.7 min
